{"source": "PubChem BioAssay AID1259405 (NCATS, 2018)", "test": "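Mouse-designed siRNAs used to find CHO productivity engineering targets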 (primary screen)", "cell system": "Chinese hamster CHO-K1 ovary cells with stable secreted eGFP expression", "reagent": "single siRNA against mouse genes, 0.8 pmol siRNA per well (2 µl of 400 nM stock)", "duration": "3 days", "read-out": "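Percent of the per-plate non-targeting control median for intracellular GFP per well by laser scanning cytometry and for cell viability by ATP luminescence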", "direction": "GFP, % of control: higher = more GFP per well, higher productivity; viability (ATP), % of control: higher = more viable cells (more ATP)", "active means": "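a knock-down is called active if GFP reaches 120% or more of non-targeting control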", "note": "The deposit covers about 50,000 reagents; below is a random part of them. About 4,000 of all reagents (8%) count as active. 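Mouse siRNA library applied to hamster cells; one well for each siRNA.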 Entries without a mark were called inactive. The numbers tell different reagents against one gene apart. Reagent sequences are not shown."}
{"gene": "Ep400", "siRNA no.": 1, "GFP, % of control": "149 (active)", "viability (ATP), % of control": 121}
{"gene": "Ep400", "siRNA no.": 2, "GFP, % of control": 112, "viability (ATP), % of control": 110}
{"gene": "Ep400", "siRNA no.": 3, "GFP, % of control": 49, "viability (ATP), % of control": 28.9}
{"gene": "Gpr3", "siRNA no.": 1, "GFP, % of control": "156 (active)", "viability (ATP), % of control": 88.5}
{"gene": "Gpr3", "siRNA no.": 2, "GFP, % of control": 70.6, "viability (ATP), % of control": 68.3}
{"gene": "Gpr3", "siRNA no.": 3, "GFP, % of control": 93.6, "viability (ATP), % of control": 77.8}
{"gene": "Mrps27", "siRNA no.": 1, "GFP, % of control": 103, "viability (ATP), % of control": 71.4}
{"gene": "Mrps27", "siRNA no.": 2, "GFP, % of control": 99.1, "viability (ATP), % of control": 90.6}
{"gene": "Mrps27", "siRNA no.": 3, "GFP, % of control": 86.5, "viability (ATP), % of control": 66.4}
{"gene": "Plxna2", "siRNA no.": 1, "GFP, % of control": 46.9, "viability (ATP), % of control": 66.4}
{"gene": "H1f10", "siRNA no.": 1, "GFP, % of control": 95.7, "viability (ATP), % of control": 97}
{"gene": "H1f10", "siRNA no.": 2, "GFP, % of control": 99, "viability (ATP), % of control": 105}
{"gene": "H1f10", "siRNA no.": 3, "GFP, % of control": 104, "viability (ATP), % of control": 76.4}
{"gene": "Ralgds", "siRNA no.": 1, "GFP, % of control": 101, "viability (ATP), % of control": 79.8}
{"gene": "Ralgds", "siRNA no.": 2, "GFP, % of control": 107, "viability (ATP), % of control": 98.8}
{"gene": "Ralgds", "siRNA no.": 3, "GFP, % of control": 50.1, "viability (ATP), % of control": 69.3}

Entries listed so far marked active, once more:
{"gene": "Ep400", "siRNA no.": 1, "GFP, % of control": "149 (active)", "viability (ATP), % of control": 121}
{"gene": "Gpr3", "siRNA no.": 1, "GFP, % of control": "156 (active)", "viability (ATP), % of control": 88.5}
